From publication PMC5727433
No constants are given. Whether binding was seen depends on the method and setting. Binding seen in cells or lysates may run through a third protein. Some results given as binding are weak or reduced against the parent protein; the word gives no strength.

Target: SMAD2 (human (endogenous in MCF10A-RAS)), Q15796
Assay: co-IP; endogenous proteins; anti-SMAD2/3 immunoprecipitates from MCF10A-RAS cells treated with TGF-β (5 ng/ml), cells depleted of OTUD1 or expressing Myc-OTUD1-wt/C320A; immunoblot for SMAD4
Conditions: remark: other sources report otherwise

B1: SMAD4, Q13485 1-552 (protein)
chain: MDNMSITNTPTSNDACLSIVHSLMCHRQGGESETFAKRAIESLVKKLKEKKDELDSLITAITTNGAHPSKCVTIQRTLDGRLQVAGRKGFPHVIYARLWRWPDLHKNELKHVKYCQYAFDLKCDSVCVNPYHYERVVSPGIDLSGLTLQSNAPSSMMVKDEYVHDFEGQPSLSTEGHSIQTIQHPPSNRASTETYSTPALLAPSESNATSTANFPNIPVASTSQPASILGGSHSEGLLQIASGPQPGQQQNGFTGQPATYHHNSTTTWTGSRTAPYTPNLPHHQNGHLQHHPPMPPHPGHYWPVHNELAFQPPISNHPAPEYWCSIAYFEMDVQVGETFKVPSSCPIVTVDGYVDPSGGDRFCLGQLSNVHRTEAIERARLHIGKGVQLECKGEGDVWVRCLSDHAVFVQSYYLDREAGRAPGDAVHKIYPSAYIKVFDLRQCHRQMQQQAATAQAAAAAQAAAVAGNIPGPGSVGGIAPAISLSAAAGIGVDDLRRLCILRMSFVKGWGPDYPRQSIKETPCWIEIHLHRALQLLDEVLHTMPIADPQPLD
binding: binds
